Test results: the supplement of paper PMC3682954
Structures can show the parent of a compound that is named as a salt. ± gives the standard deviation of the averaged measurements. The list shows a part of the results. Most values come without repeats; read them as rough.

Tested on: RAW 264.7
Assay: HMGB1-induced TNF-alpha production relative to HMGB1-stimulated control; higher = more TNF-alpha secretion (less inhibition)
Settings: stimulus: HMGB1 5 ug/ml, 18 h
[1] = compound concentration: 1 ug/ml

SMILES	HMGB1-induced TNF-alpha production (compound concentration: 3 uM) [%]	HMGB1-induced TNF-alpha production [1] [%]
COc1cccc(OC)c1OCCNCC1COc2ccccc2O1 (stereo not given) [WB-4101 hydrochloride]	72.3	–
O=C1NCN(c2ccccc2)C12CCN(CCCC(c1ccc(F)cc1)c1ccc(F)cc1)CC2 [Fluspirilene]	54.4 ± 8.3	–
O=C1NCN(c2ccccc2)C12CCN(CCCC(c1ccc(F)cc1)c1ccc(F)cc1)CC2 [Fluspirilen]	72.6	–
CC(C)(C)C(=O)OCOC(=O)[C@@H]1N2C(=O)[C@@H](NC(=O)[C@H](N)c3ccccc3)[C@H]2SC1(C)C [Pivampicillin]	90	–
O=[N+]([O-])c1cccc2c(Br)[nH]nc12 [3-Bromo-7-nitroindazole]	65	–
N=C(N)NC(=O)c1nc(Cl)c(N)nc1N [Amiloride hydrochloride dihydrate]	69.5	–
N=C(N)NC(=O)c1nc(Cl)c(N)nc1N	80.3	–
N=C(N)NC(=O)c1nc(Cl)c(N)nc1N [Amiloride]	84.2	–
N=C(N)NC(=O)c1nc(Cl)c(N)nc1N [Amiloride hydrochloride]	84.3	–
O=C(O)CCC(=O)N1CCC[C@H]1C(=O)O [N-Succinyl-L-proline]	98.8	–
CC(C)NCC(O)c1ccc(NS(C)(=O)=O)cc1 (racemic) [(±)-Sotalol hydrochloride]	109	–
O=C1c2cc(CO)cc(O)c2C(=O)c2c(OC3OC(CO)C(O)C(O)C3O)cccc21 (stereo not given) [Aloe-Emodin-8-O-glycoside]	–	77
CCCCOC(=O)c1ccc(N)cc1	80.9	–
CCCCOC(=O)c1ccc(N)cc1 [Butamben]	99.8	–
O=C(Nc1ccc(C(=O)O)c(O)c1)c1ccccc1	89	–
O=[N+]([O-])c1ccc2c(c1)S(=O)(=O)C=C2 [Stattic]	13.7	–
Nc1ccc(-c2ccc3ccccc3n2)cc1 [BF-170 hydrochloride]	98.1	–
CCOc1ccccc1OCC1CNCCO1 (stereo not given) [Viloxazine hydrochloride]	110	–
CC[C@H]1OC(=O)[C@H](C)[C@@H](O[C@H]2C[C@@](C)(OC)[C@@H](O)[C@H](C)O2)[C@H](C)[C@@H](O[C@@H]2O[C@H](C)C[C@H](N(C)C)[C@H]2O)[C@](C)(OC)C[C@@H](C)C(=O)[C@H](C)[C@@H](O)[C@]1(C)O	89.1 ± 20	–
CC[C@H]1OC(=O)[C@H](C)[C@@H](O[C@H]2C[C@@](C)(OC)[C@@H](O)[C@H](C)O2)[C@H](C)[C@@H](O[C@@H]2O[C@H](C)C[C@H](N(C)C)[C@H]2O)[C@](C)(OC)C[C@@H](C)C(=O)[C@H](C)[C@@H](O)[C@]1(C)O [Clarithromycin]	89.1 ± 28	–
CC(=O)SCC[N+](C)(C)C [Acetylthiocholine chloride]	90.9	–
O=C(Nc1nc2ccccc2n1CCN1CCOCC1)c1cccc([N+](=O)[O-])c1 [IRAK-1/4 Inhibitor I]	105	–
CCCCC1=NC2(CCCC2)C(=O)N1Cc1ccc(-c2ccccc2-c2nnn[nH]2)cc1	82.3 ± 18	–
CC(C)COC(=O)OCN1C(=O)CN(CCN2CC(=O)N(COC(=O)OCC(C)C)C(=O)C2)CC1=O [Sobuzoxane]	119	–
NS(=O)(=O)c1cc2c(cc1Cl)N=CNS2(=O)=O	94.5	–

An excerpt of these results, as a markdown table:

| SMILES | HMGB1-induced TNF-alpha production (compound concentration: 3 uM) [%] | HMGB1-induced TNF-alpha production [1] [%] |
| --- | --- | --- |
| O=[N+]([O-])c1ccc2c(c1)S(=O)(=O)C=C2 [Stattic] | 13.7 | – |
| Nc1ccc(-c2ccc3ccccc3n2)cc1 [BF-170 hydrochloride] | 98.1 | – |
| CCOc1ccccc1OCC1CNCCO1 (stereo not given) [Viloxazine hydrochloride] | 110 | – |
| CC[C@H]1OC(=O)[C@H](C)[C@@H](O[C@H]2C[C@@](C)(OC)[C@@H](O)[C@H](C)O2)[C@H](C)[C@@H](O[C@@H]2O[C@H](C)C[C@H](N(C)C)[C@H]2O)[C@](C)(OC)C[C@@H](C)C(=O)[C@H](C)[C@@H](O)[C@]1(C)O | 89.1 ± 20 | – |
| CC[C@H]1OC(=O)[C@H](C)[C@@H](O[C@H]2C[C@@](C)(OC)[C@@H](O)[C@H](C)O2)[C@H](C)[C@@H](O[C@@H]2O[C@H](C)C[C@H](N(C)C)[C@H]2O)[C@](C)(OC)C[C@@H](C)C(=O)[C@H](C)[C@@H](O)[C@]1(C)O [Clarithromycin] | 89.1 ± 28 | – |

Further entries

SMILES	HMGB1-induced TNF-alpha production (compound concentration: 3 uM) [%]	HMGB1-induced TNF-alpha production [1] [%]
NS(=O)(=O)c1cc2c(cc1Cl)N=CNS2(=O)=O [Chlorothiazide]	71.3 ± 12	–
CNS(=O)(=O)Cc1ccc2[nH]cc(CCN(C)C)c2c1 [Sumatriptan succinate]	104	–
CNS(=O)(=O)Cc1ccc2[nH]cc(CCN(C)C)c2c1 [Sumatriptan Succinate]	88.3	–
CNS(=O)(=O)Cc1ccc2[nH]cc(CCN(C)C)c2c1	110	–
O=c1c(O)c(-c2ccc(O)c(O)c2)oc2cc(O)ccc12 [Fisetin]	–	52.9
CN[C@H](CC(C)C)C(=O)N[C@H]1C(=O)N[C@@H](CC(N)=O)C(=O)N[C@H]2C(=O)N[C@H]3C(=O)N[C@H](C(=O)N[C@H](C(=O)O)c4cc(O)cc(O)c4-c4cc3ccc4O)[C@H](O)c3ccc(c(Cl)c3)Oc3cc2cc(c3O[C@@H]2O[C@H](CO)[C@@H](O)[C@H](O)[C@H]2O[C@H]2C[C@](C)(N)[C@H](O)[C@H](C)O2)Oc2ccc(cc2Cl)[C@H]1O	98.8	–
CN[C@H](CC(C)C)C(=O)N[C@H]1C(=O)N[C@@H](CC(N)=O)C(=O)N[C@H]2C(=O)N[C@H]3C(=O)N[C@H](C(=O)N[C@H](C(=O)O)c4cc(O)cc(O)c4-c4cc3ccc4O)[C@H](O)c3ccc(c(Cl)c3)Oc3cc2cc(c3O[C@@H]2O[C@H](CO)[C@@H](O)[C@H](O)[C@H]2O[C@H]2C[C@](C)(N)[C@H](O)[C@H](C)O2)Oc2ccc(cc2Cl)[C@H]1O [Vancomycin hydrochloride]	61.8	–
CN[C@H](CC(C)C)C(=O)N[C@H]1C(=O)N[C@@H](CC(N)=O)C(=O)N[C@H]2C(=O)N[C@H]3C(=O)N[C@H](C(=O)N[C@H](C(=O)O)c4cc(O)cc(O)c4-c4cc3ccc4O)[C@H](O)c3ccc(c(Cl)c3)Oc3cc2cc(c3O[C@@H]2O[C@H](CO)[C@@H](O)[C@H](O)[C@H]2O[C@H]2C[C@](C)(N)[C@H](O)[C@H](C)O2)Oc2ccc(cc2Cl)[C@H]1O [Vancomycin hydrochloride from Streptomyces orientalis]	104	–
NC(=O)c1ncn([C@@H]2O[C@H](CO)[C@@H](O)[C@H]2O)n1	101	–
NC(=O)c1ncn([C@@H]2O[C@H](CO)[C@@H](O)[C@H]2O)n1 [Ribavirin]	97.2 ± 13	–
CCOc1ccc2c(c1)C(C)=CC(C)(C)N2 [Ethoxyquin]	97.8	–
CCOC(=O)[C@H](CCc1ccccc1)N[C@@H](C)C(=O)N1[C@H](C(=O)O)C[C@@H]2CCC[C@@H]21	91.9 ± 1.4	–
CCOC(=O)[C@H](CCc1ccccc1)N[C@@H](C)C(=O)N1[C@H](C(=O)O)C[C@@H]2CCC[C@@H]21 [Ramipril]	96.4 ± 16	–
Cn1c(=O)c2[nH]c(C3CCCC3)nc2n(C)c1=O [8-Cyclopentyl-1,3-dimethylxanthine]	92.7	–
C=NC(C(=O)NC1C(=O)N2C1SC(C)(C)C2C(=O)O)c1ccccc1 (stereo not given)	79.8	–
CC(C)COCC(CN(Cc1ccccc1)c1ccccc1)N1CCCC1 (stereo not given) [Bepridil hydrochloride]	71.3 ± 29	–
CC(C)COCC(CN(Cc1ccccc1)c1ccccc1)N1CCCC1 (stereo not given) [Bepridil]	92.3	–
CC(C)COCC(CN(Cc1ccccc1)c1ccccc1)N1CCCC1 (stereo not given)	97.2	–
O=C(O)c1cc(=O)c2ccccc2o1	86.4	–
COc1ccc2oc(-c3ccccc3)c(OC)c(=O)c2c1	–	57.1
NC(=S)c1ccc[n+]([C@@H]2O[C@@H](COP(=O)([O-])OP(=O)(O)OC[C@H]3O[C@@H](n4cnc5c(N)ncnc54)C(OP(=O)(O)O)[C@H]3O)C(O)C2O)c1 (stereo not given in full) [Thio-NADP sodium]	103	–
NS(=O)(=O)c1cc(C(=O)O)c(NCc2ccco2)cc1Cl [Furosemide]	82.1 ± 15	–
NS(=O)(=O)c1cc(C(=O)O)c(NCc2ccco2)cc1Cl	83.1	–
Cc1cc(C2CCCCC2)n(O)c(=O)c1	76.6	–
Cc1cc(C2CCCCC2)n(O)c(=O)c1 [Ciclopirox ethanolamine]	59.9	–

SMILES	HMGB1-induced TNF-alpha production (compound concentration: 3 uM) [%]	HMGB1-induced TNF-alpha production [1] [%]
O=c1ccn(C2OC(COc3ccc([N+](=O)[O-])cc3)C(O)C2O)c(=O)[nH]1 (stereo not given)	–	76.8
COc1cc(C(=O)NS(=O)(=O)c2ccccc2C)ccc1Cc1cn(C)c2ccc(NC(=O)OC3CCCC3)cc12 [Zafirlukast]	113 ± 6.3	–
COc1cc(C(=O)NS(=O)(=O)c2ccccc2C)ccc1Cc1cn(C)c2ccc(NC(=O)OC3CCCC3)cc12	131	–
COc1ccc(C2C(=O)c3ccccc3C2=O)cc1	96.7	–
Cc1cccc(C)c1NC(=O)C1CCCCN1C (stereo not given) [Mepivacaine hydrochloride]	89.5	–
Cc1cccc(C)c1NC(=O)C1CCCCN1C (stereo not given)	86.9 ± 18	–
COc1cc(/C=C/C(=O)N2CCC=CC2=O)cc(OC)c1OC	–	-2.65
CN(C)c1ccc2nc3ccc(=[N+](C)C)cc-3sc2c1	86	–
CN1C(C(=O)Nc2ccccn2)=C(O)c2sccc2S1(=O)=O [Tenoxicam]	73.4 ± 26	–
CN1C(C(=O)Nc2ccccn2)=C(O)c2sccc2S1(=O)=O	118	–
Cc1cc2c(c(O)c1-c1c(C)cc3c(c1O)C(=O)C(O)C3C(C)C)C(=O)C(O)C2C(C)C (stereo not given)	–	83.5
Cc1ncc([N+](=O)[O-])n1CC(O)CCl (stereo not given)	97.7 ± 18	–
Cc1ncc([N+](=O)[O-])n1CC(O)CCl (stereo not given) [Ornidazole]	102	–
O=P(O)(O)C(Sc1ccc(Cl)cc1)P(=O)(O)O [Tiludronate disodium]	116	–
C[C@]12CC[C@H]3C(=CCc4cc(O)ccc43)[C@@H]1CCC2=O [Equilin]	115	78.8
C[C@]12CC[C@H]3C(=CCc4cc(O)ccc43)[C@@H]1CCC2=O	76.7	–
C[C@]12C=CC(=O)C=C1CC[C@@H]1[C@@H]2[C@@H](O)C[C@@]2(C)[C@H]1CC[C@]2(O)C(=O)COP(=O)(O)O	59.9	–
O=C1CCC(N2C(=O)c3ccccc3C2=O)C(=O)N1 (racemic) [(±)-Thalidomide]	104	–
N=C(N)N	78	–
Cc1c(C(N)=O)cc([N+](=O)[O-])cc1[N+](=O)[O-]	73.7	–
CNC(=O)[C@H]1O[C@@H](n2cnc3c(NCc4cccc(I)c4)ncnc32)[C@H](O)[C@@H]1O	101	–
C=C[C@H]1CN2CC[C@H]1C[C@@H]2[C@@H](O)c1ccnc2ccc(OC)cc12	84.3	–
C=C[C@H]1CN2CC[C@H]1C[C@@H]2[C@@H](O)c1ccnc2ccc(OC)cc12 [Quinidine sulfate]	96.5	–
C=C[C@H]1CN2CC[C@H]1C[C@@H]2[C@@H](O)c1ccnc2ccc(OC)cc12 [Quinidine hydrochloride monohydrate]	69.2	–
